Results are given in words; binding and its absence hold for the method and conditions named. Some entries that bind do so weakly or less than the wild type. For some assays here: Tags and fused reporters may be left off the sequences shown.

The chains behind the UniProt entries cited, without tags or fusion partners. Where a name states a change or a piece, a line headed by the entry shows the natural chain unless it says otherwise.
UniProt P0AFC3: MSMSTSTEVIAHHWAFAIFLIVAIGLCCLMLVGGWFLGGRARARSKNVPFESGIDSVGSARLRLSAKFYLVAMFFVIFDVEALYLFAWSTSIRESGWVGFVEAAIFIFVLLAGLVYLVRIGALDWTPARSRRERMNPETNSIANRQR

We go through 2 molecules from paper PMC1959517.

For assay [1], the target named is T1, His-tagged CyaY (overproduced from pCA24NcyaY) (E. coli), P27838.
T1 chain: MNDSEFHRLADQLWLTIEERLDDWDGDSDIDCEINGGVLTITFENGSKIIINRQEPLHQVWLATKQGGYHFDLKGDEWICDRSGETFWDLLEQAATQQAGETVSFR
As to the kind of experiment: SDS-PAGE; His-tagged CyaY purified on His Spin-Trap (Ni-Sepharose), eluted with 1 M imidazole in 20 mM Na3PO4/HCl pH 7.4; bands of apparent 12 and 25 kDa on a Coomassie-stained SDS gel; both purified. As to conditions: remark: other sources report otherwise.

The target in assay [2] is NADH:ubiquinone oxidoreductase (respiratory complex I) of Escherichia coli (E. coli (endogenous in BW25113)) (UniProt P0AFC3). As to the kind of experiment: co-purification (anion exchange and size-exclusion chromatography) read by SDS-PAGE; complex I isolated from DDM extract of cytoplasmic membranes of the parental strain BW25113 (Fractogel EMD, Source 15Q, Sephacryl S-300 HR; 50 mM MES/NaOH, 50 mM NaCl, 0.1% DDM, pH 6.0, 4°C); 100 μg of the preparation on a Coomassie-stained SDS gel, looked at for a 12 kDa band. On the technique in general: Size exclusion chromatography separates by hydrodynamic size, large species first.

B1: His-tagged CyaY (overproduced from pCA24NcyaY), P27838 1-106 (protein)
chain: MNDSEFHRLADQLWLTIEERLDDWDGDSDIDCEINGGVLTITFENGSKIIINRQEPLHQVWLATKQGGYHFDLKGDEWICDRSGETFWDLLEQAATQQAGETVSFR
On to B1, for which, in assay [1], the binding result was “binds”.

B2: CyaY, the Escherichia coli frataxin homologue (protein, UniProt P27838 1-106)
chain: MNDSEFHRLADQLWLTIEERLDDWDGDSDIDCEINGGVLTITFENGSKIIINRQEPLHQVWLATKQGGYHFDLKGDEWICDRSGETFWDLLEQAATQQAGETVSFR
For the molecule B2, in assay [2], the binding result is “no binding”.
